# In patent US11253604B2 (CAREGEN CO., LTD., priority 2017, dated 2022):
# End groups of sequences in plain letters are not given here.
# Assay: general procedure: Fmoc solid-phase peptide synthesis; CTL resin; HoBt/Bop/DIEA
# Conditions: whole synthesis
sequence,measurement,setting,value
RFLKRLDRNLW,crude mass,,1.40 g
same,crude yield,scale of the general procedure 700 mg resin,92.4%
